No constants are given. Whether binding was seen depends on the method and setting. Some entries that bind do so weakly or less than the wild type. Where a sequence is shown, tags or fusion partners need not be part of it.

By UniProt entry, the sequences of proteins in these tests, tags left out.
UniProt Q15286: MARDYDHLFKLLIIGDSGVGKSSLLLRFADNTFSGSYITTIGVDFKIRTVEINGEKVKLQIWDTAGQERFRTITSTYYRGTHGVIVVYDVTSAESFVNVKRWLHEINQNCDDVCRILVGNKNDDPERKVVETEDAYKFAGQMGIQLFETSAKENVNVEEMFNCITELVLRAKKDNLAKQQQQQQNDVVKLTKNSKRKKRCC
UniProt P51159: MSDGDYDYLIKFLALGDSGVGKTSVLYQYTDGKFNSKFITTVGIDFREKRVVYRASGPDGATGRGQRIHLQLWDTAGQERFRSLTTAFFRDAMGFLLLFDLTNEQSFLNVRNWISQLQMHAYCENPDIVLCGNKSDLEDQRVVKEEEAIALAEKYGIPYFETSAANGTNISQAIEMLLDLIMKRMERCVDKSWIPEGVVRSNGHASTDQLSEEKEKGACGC

What all share (assay): mitochondrial mislocalisation (Tom20 tethering) by fluorescence microscopy; bait tethered to mitochondria by a Tom20 tag and co-expressed with the candidate partner (or stained for the endogenous one) in HUVECs; relocation of the partner to mitochondria read by imaging and Pearson's coefficient
In assay [1] the target is Tom20-Rab35 wild-type (mitochondrial-targeted Rab35), Q15286. Particulars: remark: other sources report otherwise.
In the next assay the target is tom20-Rab27a (UniProt P51159).
Assay [2] concerns the target Tom20-Rab35 wild-type (mitochondrial-targeted Rab35) (UniProt Q15286).

B1: MICAL-L1 (tagged, overexpressed), Q8N3F8 1-863 (protein)
chain: MAGPRGALLAWCRRQCEGYRGVEIRDLSSSFRDGLAFCAILHRHRPDLLDFDSLSKDNVFENNRLAFEVAEKELGIPALLDPNDMVSMSVPDCLSIMTYVSQYYNHFCSPGQAGVSPPRKGLAPCSPPSVAPTPVEPEDVAQGEELSSGSLSEQGTGQTPSSTCAACQQHVHLVQRYLADGRLYHRHCFRCRRCSSTLLPGAYENGPEEGTFVCAEHCARLGPGTRSGTRPGPFSQPKQQHQQQLAEDAKDVPGGGPSSSAPAGAEADGPKASPEARPQIPTKPRVPGKLQELASPPAGRPTPAPRKASESTTPAPPTPRPRSSLQQENLVEQAGSSSLVNGRLHELPVPKPRGTPKPSEGTPAPRKDPPWITLVQAEPKKKPAPLPPSSSPGPPSQDSRQVENGGTEEVAQPSPTASLESKPYNPFEEEEEDKEEEAPAAPSLATSPALGHPESTPKSLHPWYGITPTSSPKTKKRPAPRAPSASPLALHASRLSHSEPPSATPSPALSVESLSSESASQTAGAELLEPPAVPKSSSEPAVHAPGTPGNPVSLSTNSSLASSGELVEPRVEQMPQASPGLAPRTRGSSGPQPAKPCSGATPTPLLLVGDRSPVPSPGSSSPQLQVKSSCKENPFNRKPSPAASPATKKATKGSKPVRPPAPGHGFPLIKRKVQADQYIPEEDIHGEMDTIERRLDALEHRGVLLEEKLRGGLNEGREDDMLVDWFKLIHEKHLLVRRESELIYVFKQQNLEQRQADVEYELRCLLNKPEKDWTEEDRAREKVLMQELVTLIEQRNAIINCLDEDRQREEEEDKMLEAMIKKKEFQREAEPEGKKKGKFKTMKMLKLLGNKRDAKSKSPRDKS
B1: in assay [1], the binding entry is “no binding”.

B2: endogenous podocalyxin, O00592 23-558 (protein)
chain: SPSPSPSPSQNATQTTTDSSNKTAPTPASSVTIMATDTAQQSTVPTSKANEILASVKATTLGVSSDSPGTTTLAQQVSGPVNTTVARGGGSGNPTTTIESPKSTKSADTTTVATSTATAKPNTTSSQNGAEDTTNSGGKSSHSVTTDLTSTKAEHLTTPHPTSPLSPRQPTSTHPVATPTSSGHDHLMKISSSSSTVAIPGYTFTSPGMTTTLLETVFHHVSQAGLELLTSGDLPTLASQSAGITASSVISQRTQQTSSQMPASSTAPSSQETVQPTSPATALRTPTLPETMSSSPTAASTTHRYPKTPSPTVAHESNWAKCEDLETQTQSEKQLVLNLTGNTLCAGGASDEKLISLICRAVKATFNPAQDKCGIRLASVPGSQTVVVKEITIHTKLPAKDVYERLKDKWDELKEAGVSDMKLGDQGPPEEAEDRFSMPLIITIVCMASFLLLVAALYGCCHQRLSQRKDQQRLTEELQTVENGYHDNPTLEVMETSSEMQEKKVVSLNGELGDSWIVPLDNLTKDDLDEEEDTHL
On to B2, for which, in assay [1], the binding entry is “no binding”.

B3: ACAP2 (tagged, overexpressed) (protein, UniProt Q15057 1-778)
chain: MKMTVDFEECLKDSPRFRAALEEVEGDVAELELKLDKLVKLCIAMIDTGKAFCVANKQFMNGIRDLAQYSSNDAVVETSLTKFSDSLQEMINFHTILFDQTQRSIKAQLQNFVKEDLRKFKDAKKQFEKVSEEKENALVKNAQVQRNKQHEVEEATNILTATRKCFRHIALDYVLQINVLQSKRRSEILKSMLSFMYAHLAFFHQGYDLFSELGPYMKDLGAQLDRLVVDAAKEKREMEQKHSTIQQKDFSSDDSKLEYNVDAANGIVMEGYLFKRASNAFKTWNRRWFSIQNNQLVYQKKFKDNPTVVVEDLRLCTVKHCEDIERRFCFEVVSPTKSCMLQADSEKLRQAWIKAVQTSIATAYREKGDESEKLDKKSSPSTGSLDSGNESKEKLLKGESALQRVQCIPGNASCCDCGLADPRWASINLGITLCIECSGIHRSLGVHFSKVRSLTLDTWEPELLKLMCELGNDVINRVYEANVEKMGIKKPQPGQRQEKEAYIRAKYVERKFVDKYSISLSPPEQQKKFVSKSSEEKRLSISKFGPGDQVRASAQSSVRSNDSGIQQSSDDGRESLPSTVSANSLYEPEGERQDSSMFLDSKHLNPGLQLYRASYEKNLPKMAEALAHGADVNWANSEENKATPLIQAVLGGSLVTCEFLLQNGANVNQRDVQGRGPLHHATVLGHTGQVCLFLKRGANQHATDEEGKDPLSIAVEAANADIVTLLRLARMNEEMRESEGLYGQPGDETYQDIFRDFSQMASNNPEKLNRFQQDSQKF
As to B3, the binding result is listed as “no binding” in the assay with tom20-Rab27a and “binds” in assay [2].

B4: MICAL-1 (tagged, overexpressed), Q8TDZ2 1-1067 (protein)
chain: MASPTSTNPAHAHFESFLQAQLCQDVLSSFQELCGALGLEPGGGLPQYHKIKDQLNYWSAKSLWTKLDKRAGQPVYQQGRACTSTKCLVVGAGPCGLRVAVELALLGARVVLVEKRTKFSRHNVLHLWPFTIHDLRALGAKKFYGRFCTGTLDHISIRQLQLLLLKVALLLGVEIHWGVTFTGLQPPPRKGSGWRAQLQPNPPAQLANYEFDVLISAAGGKFVPEGFKVREMRGKLAIGITANFVNGRTVEETQVPEISGVARIYNQSFFQSLLKATGIDLENIVYYKDDTHYFVMTAKKQCLLRLGVLRQDWPDTNRLLGSANVVPEALQRFTRAAADFATHGKLGKLEFAQDAHGQPDVSAFDFTSMMRAESSARVQEKHGARLLLGLVGDCLVEPFWPLGTGVARGFLAAFDAAWMVKRWAEGAESLEVLAERESLYQLLSQTSPENMHRNVAQYGLDPATRYPNLNLRAVTPNQVRDLYDVLAKEPVQRNNDKTDTGMPATGSAGTQEELLRWCQEQTAGYPGVHVSDLSSSWADGLALCALVYRLQPGLLEPSELQGLGALEATAWALKVAENELGITPVVSAQAVVAGSDPLGLIAYLSHFHSAFKSMAHSPGPVSQASPGTSSAVLFLSKLQRTLQRSRAKENAEDAGGKKLRLEMEAETPSTEVPPDPEPGVPLTPPSQHQEAGAGDLCALCGEHLYVLERLCVNGHFFHRSCFRCHTCEATLWPGGYEQHPGDGHFYCLQHLPQTDHKAEGSDRGPESPELPTPSENSMPPGLSTPTASQEGAGPVPDPSQPTRRQIRLSSPERQRLSSLNLTPDPEMEPPPKPPRSCSALARHALESSFVGWGLPVQSPQALVAMEKEEKESPFSSEEEEEDVPLDSDVEQALQTFAKTSGTMNNYPTWRRTLLRRAKEEEMKRFCKAQTIQRRLNEIEAALRELEAEGVKLELALRRQSSSPEQQKKLWVGQLLQLVDKKNSLVAEEAELMITVQELNLEEKQWQLDQELRGYMNREENLKTAADRQAEDQVLRKLVDLVNQRDALIRFQEERRLSELALGTGAQG
For the molecule B4, the binding entry in assay [1] is reported as “no binding”.

The record behind these values is article PMC9458672.
